# According to PubChem BioAssay (EPA / NIEHS):
# Chains of the proteins cited; added tags and fusions are not shown. Lines headed by an entry give the natural chain unless they say otherwise; changes in a name come on top.
# UniProt P60484: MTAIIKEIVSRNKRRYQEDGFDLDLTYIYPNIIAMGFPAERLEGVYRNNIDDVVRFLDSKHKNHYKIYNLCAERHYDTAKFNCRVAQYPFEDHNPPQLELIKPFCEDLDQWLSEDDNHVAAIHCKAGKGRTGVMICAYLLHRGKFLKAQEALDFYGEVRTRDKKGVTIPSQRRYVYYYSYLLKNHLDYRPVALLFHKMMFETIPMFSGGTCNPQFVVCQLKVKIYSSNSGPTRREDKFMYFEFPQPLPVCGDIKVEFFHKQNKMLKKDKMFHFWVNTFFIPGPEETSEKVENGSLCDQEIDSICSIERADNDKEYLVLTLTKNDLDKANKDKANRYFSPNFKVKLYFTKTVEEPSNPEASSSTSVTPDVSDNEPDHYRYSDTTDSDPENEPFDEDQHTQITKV
# Inconclusive means that the source gave no clear call. Such entries were picked first, then a sample of the others. Potencies beside an inconclusive call are fits to weak or partial responses and may not hold up. Calls of active or inactive are those of the source. How the source made its calls: active means hit-call score of the fitted dose curve at least 0.9, where 1 is the maximum; inconclusive means response in the unintended direction; inactive means score below 0.9.
# Target: human Phosphatase and Tensin Homolog (PTEN), PTEN (gene 5728) (UniProt P60484)
# Assay: NVS_ENZ_hPTEN: NovaScreen (NVS) Enzymatic Assay for human Phosphatase and Tensin Homolog (PTEN) (AID 2283203)
# Procedure, shortened: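 Loss of fluorescent product signal after mobility-shift separation reports PTEN activity, recombinant human enzyme, 1 h after compound addition. Single 25 uM duplicate screen, then concentration-response on actives; DMSO baseline.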
Compound,AC50,outcome
CCC(=O)OC/C=C(\C)CCC=C(C)C,inconclusive: 0.726 µM,
CC/C=C\C/C=C\C/C=C\CCCCCCCC(=O)OC,active: 9.64 µM,
O=C1NC(=O)[C@@H]2CC=CC[C@H]12,inconclusive: 0.0766 µM,
CC/C(=C(\c1ccccc1)c1ccc(OCCN(C)C)cc1)c1ccccc1,inconclusive: 38.6 µM,
CC(=O)OCCc1ccccc1,inconclusive: 27.5 µM,
CCOC(=O)[C@H](C)O,,inactive
CCOC(=O)CN,inconclusive: 25 µM,
CC1(C)[C@H]2CC[C@]1(C)C(=O)C2,inconclusive: 25 µM,
CCOCOCC,inconclusive: 0.198 µM,
Cn1c(=O)[nH]c2ncn(C)c2c1=O,inconclusive: 6.11 µM,
O=C1OC2(c3ccc(O)cc3Oc3cc(O)ccc32)c2ccccc21,,inactive
CC(=O)c1c(C)c([N+](=O)[O-])c(C(C)(C)C)c([N+](=O)[O-])c1C,inconclusive: 0.44 µM,
CCC(=O)O,,inactive
CCCCCC1CCCC(=O)O1 (centres undefined),inconclusive: 25 µM,
CC=Cc1ccc(OC)c(OC)c1,inconclusive: 0.12 µM,
CS(=O)(=O)c1ccc(C2=C(c3ccccc3)C(=O)OC2)cc1,inconclusive: 0.271 µM,
CC1(C)[C@H](C=C(Cl)Cl)[C@H]1C(=O)OCc1cccc(Oc2ccccc2)c1,inconclusive: 5.15 µM,
CCOCN(C(=O)CS(=O)(=O)O)c1c(C)cccc1CC,inconclusive: 0.277 µM,
CCCCCCCCCCCCCCCC[N+](C)(C)Cc1ccccc1,inconclusive: 25 µM,
